Assay results taken from US20200054764A1 (priority 2016, published 2020).

Test: general procedure: solution-phase peptide synthesis; 2-(7-azabenzotriazol)-N,N,N',N'-tetramethyluronium hexafluorophosphate / N,N-dii
Conditions: late stage modification step

Substance: (S)-2-((2R,3R)-3-((1S,3S,5S)-2-((3R,4S,5S)-4-((S)—N,3-dimethyl-2-((S)-3-methyl-2-(methylamino)butanamide)butanamide)-3-methoxy-5-methylheptanoyl)-2-azabicyclo[3.1.0]hexane-3-yl)-3-methoxy-2-methylpropanamide)-3-(2-fluorophenyl)propionic acid
- step yield: 20%
